Measurements: the supplement of paper PMC11006884
The list shows a part of the results, in another mix than the full data.

Chains of the proteins cited; added tags and fusions are not shown. Lines headed by an entry give the natural chain unless they say otherwise; changes in a name come on top.
UniProt Q8TEX9: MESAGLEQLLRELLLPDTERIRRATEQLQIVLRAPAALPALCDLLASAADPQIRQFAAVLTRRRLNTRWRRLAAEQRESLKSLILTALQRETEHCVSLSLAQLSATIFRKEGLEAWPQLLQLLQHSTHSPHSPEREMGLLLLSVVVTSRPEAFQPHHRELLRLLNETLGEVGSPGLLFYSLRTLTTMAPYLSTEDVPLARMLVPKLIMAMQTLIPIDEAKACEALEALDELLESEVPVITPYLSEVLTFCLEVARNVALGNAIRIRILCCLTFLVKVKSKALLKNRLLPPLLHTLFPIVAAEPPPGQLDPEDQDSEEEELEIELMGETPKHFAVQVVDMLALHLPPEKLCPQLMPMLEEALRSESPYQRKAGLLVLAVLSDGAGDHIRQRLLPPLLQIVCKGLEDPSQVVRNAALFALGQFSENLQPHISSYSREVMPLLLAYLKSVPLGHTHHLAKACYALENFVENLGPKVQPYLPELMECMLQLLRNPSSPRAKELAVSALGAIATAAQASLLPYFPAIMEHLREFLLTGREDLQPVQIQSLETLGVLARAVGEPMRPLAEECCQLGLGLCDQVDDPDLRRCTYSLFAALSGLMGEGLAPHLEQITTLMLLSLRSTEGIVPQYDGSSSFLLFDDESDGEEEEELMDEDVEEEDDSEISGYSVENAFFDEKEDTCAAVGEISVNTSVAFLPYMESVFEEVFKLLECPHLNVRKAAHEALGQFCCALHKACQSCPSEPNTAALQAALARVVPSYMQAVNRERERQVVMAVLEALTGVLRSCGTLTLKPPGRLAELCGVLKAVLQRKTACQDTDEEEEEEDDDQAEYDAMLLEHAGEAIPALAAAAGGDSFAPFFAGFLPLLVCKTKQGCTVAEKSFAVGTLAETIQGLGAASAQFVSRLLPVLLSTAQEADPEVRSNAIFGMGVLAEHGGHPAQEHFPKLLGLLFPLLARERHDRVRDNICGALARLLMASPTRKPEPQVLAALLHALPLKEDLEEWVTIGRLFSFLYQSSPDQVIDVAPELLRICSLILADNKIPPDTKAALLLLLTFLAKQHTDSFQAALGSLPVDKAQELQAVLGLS
UniProt Q8TDX7: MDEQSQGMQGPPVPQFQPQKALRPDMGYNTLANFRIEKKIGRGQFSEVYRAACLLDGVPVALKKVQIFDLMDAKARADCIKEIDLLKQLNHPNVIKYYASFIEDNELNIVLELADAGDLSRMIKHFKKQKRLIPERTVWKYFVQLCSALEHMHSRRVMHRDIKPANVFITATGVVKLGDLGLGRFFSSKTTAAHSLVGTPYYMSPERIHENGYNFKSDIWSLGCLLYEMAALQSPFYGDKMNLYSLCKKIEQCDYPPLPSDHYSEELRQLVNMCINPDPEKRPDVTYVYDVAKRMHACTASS
UniProt Q8TAT6: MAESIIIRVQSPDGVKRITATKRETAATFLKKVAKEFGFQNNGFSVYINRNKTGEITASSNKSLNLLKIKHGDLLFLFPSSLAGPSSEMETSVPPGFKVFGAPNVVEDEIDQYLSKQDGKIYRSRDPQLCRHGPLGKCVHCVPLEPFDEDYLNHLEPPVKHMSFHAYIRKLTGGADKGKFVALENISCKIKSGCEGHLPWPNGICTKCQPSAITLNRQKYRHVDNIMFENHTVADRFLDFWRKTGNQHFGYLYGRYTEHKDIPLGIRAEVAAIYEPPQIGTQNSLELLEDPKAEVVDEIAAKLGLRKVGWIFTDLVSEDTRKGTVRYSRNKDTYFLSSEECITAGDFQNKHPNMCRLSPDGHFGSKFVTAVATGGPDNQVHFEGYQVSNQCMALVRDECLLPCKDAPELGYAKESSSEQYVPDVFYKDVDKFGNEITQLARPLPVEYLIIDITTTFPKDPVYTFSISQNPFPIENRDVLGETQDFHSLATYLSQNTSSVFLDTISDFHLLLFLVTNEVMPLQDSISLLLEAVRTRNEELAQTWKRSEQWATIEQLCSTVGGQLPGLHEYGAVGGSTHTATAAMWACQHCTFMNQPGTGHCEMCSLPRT
UniProt Q8TB72: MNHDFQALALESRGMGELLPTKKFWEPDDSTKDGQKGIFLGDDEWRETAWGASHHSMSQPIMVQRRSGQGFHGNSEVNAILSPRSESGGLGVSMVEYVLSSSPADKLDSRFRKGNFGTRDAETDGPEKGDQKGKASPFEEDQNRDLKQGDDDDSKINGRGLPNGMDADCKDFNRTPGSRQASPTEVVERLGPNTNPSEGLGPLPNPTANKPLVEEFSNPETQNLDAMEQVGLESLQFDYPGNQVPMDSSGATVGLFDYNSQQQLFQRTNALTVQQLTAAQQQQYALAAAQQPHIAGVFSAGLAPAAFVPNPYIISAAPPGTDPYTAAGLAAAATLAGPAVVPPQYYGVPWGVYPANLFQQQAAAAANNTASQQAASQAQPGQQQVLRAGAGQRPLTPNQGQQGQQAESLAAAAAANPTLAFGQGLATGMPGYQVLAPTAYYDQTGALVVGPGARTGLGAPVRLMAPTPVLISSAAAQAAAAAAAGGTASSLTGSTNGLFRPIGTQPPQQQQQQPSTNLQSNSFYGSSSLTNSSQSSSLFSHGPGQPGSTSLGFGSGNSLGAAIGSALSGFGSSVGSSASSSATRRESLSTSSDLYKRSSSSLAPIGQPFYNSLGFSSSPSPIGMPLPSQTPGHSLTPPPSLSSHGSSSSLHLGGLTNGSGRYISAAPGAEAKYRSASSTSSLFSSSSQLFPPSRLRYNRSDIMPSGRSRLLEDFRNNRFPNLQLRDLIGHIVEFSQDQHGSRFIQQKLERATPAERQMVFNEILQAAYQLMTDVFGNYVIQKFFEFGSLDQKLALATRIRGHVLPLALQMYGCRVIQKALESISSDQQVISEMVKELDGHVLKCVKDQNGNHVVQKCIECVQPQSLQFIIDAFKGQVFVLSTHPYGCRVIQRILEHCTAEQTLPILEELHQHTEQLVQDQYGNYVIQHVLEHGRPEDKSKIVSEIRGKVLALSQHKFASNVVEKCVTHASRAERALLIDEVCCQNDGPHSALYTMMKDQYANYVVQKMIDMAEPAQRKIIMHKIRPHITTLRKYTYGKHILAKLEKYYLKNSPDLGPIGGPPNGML
UniProt Q8TD19: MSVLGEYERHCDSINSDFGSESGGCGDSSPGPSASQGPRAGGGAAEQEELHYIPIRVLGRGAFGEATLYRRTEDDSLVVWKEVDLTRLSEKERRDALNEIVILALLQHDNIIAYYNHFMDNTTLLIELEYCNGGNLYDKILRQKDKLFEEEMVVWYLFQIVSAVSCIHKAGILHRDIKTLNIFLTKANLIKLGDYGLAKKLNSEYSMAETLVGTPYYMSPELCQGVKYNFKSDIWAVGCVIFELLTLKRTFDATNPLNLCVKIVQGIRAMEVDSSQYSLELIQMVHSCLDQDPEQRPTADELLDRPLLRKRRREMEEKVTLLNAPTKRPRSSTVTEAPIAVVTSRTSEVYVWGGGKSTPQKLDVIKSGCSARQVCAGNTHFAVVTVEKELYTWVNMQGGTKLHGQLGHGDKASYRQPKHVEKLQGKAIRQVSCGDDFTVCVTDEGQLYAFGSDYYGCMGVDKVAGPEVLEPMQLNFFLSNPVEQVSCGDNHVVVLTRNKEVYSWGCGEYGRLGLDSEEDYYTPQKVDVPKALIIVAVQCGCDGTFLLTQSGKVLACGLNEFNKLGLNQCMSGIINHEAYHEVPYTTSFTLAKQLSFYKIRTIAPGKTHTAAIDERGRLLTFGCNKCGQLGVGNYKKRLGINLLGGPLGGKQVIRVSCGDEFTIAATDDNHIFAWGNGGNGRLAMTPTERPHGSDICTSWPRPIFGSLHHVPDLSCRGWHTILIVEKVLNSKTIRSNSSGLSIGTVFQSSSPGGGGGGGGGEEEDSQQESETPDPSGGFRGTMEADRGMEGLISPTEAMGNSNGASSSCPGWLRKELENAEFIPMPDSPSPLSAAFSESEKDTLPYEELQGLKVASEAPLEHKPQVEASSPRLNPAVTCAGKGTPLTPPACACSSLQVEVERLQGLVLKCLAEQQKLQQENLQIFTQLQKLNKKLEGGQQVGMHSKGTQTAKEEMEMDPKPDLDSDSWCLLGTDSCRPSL
UniProt Q8TD30: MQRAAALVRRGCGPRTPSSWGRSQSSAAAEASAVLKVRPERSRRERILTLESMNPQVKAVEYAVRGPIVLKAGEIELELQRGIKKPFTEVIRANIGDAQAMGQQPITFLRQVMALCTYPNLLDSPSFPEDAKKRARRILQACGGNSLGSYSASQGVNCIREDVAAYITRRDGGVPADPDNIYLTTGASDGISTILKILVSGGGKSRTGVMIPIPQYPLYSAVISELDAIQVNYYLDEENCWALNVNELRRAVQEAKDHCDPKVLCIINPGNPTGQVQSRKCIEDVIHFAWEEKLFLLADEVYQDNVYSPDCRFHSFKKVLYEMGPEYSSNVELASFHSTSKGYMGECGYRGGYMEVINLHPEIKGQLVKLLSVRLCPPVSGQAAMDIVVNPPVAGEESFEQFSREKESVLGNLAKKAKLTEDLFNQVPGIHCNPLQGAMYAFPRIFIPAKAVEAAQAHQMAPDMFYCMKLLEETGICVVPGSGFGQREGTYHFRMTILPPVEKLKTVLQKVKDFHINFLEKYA
UniProt Q8TDB4: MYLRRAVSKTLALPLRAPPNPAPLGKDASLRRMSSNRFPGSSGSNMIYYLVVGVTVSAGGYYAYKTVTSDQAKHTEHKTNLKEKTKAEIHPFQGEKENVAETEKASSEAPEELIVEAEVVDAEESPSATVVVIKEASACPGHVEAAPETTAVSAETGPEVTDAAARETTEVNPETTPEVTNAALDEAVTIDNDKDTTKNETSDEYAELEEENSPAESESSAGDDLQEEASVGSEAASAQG
UniProt Q8WZ64: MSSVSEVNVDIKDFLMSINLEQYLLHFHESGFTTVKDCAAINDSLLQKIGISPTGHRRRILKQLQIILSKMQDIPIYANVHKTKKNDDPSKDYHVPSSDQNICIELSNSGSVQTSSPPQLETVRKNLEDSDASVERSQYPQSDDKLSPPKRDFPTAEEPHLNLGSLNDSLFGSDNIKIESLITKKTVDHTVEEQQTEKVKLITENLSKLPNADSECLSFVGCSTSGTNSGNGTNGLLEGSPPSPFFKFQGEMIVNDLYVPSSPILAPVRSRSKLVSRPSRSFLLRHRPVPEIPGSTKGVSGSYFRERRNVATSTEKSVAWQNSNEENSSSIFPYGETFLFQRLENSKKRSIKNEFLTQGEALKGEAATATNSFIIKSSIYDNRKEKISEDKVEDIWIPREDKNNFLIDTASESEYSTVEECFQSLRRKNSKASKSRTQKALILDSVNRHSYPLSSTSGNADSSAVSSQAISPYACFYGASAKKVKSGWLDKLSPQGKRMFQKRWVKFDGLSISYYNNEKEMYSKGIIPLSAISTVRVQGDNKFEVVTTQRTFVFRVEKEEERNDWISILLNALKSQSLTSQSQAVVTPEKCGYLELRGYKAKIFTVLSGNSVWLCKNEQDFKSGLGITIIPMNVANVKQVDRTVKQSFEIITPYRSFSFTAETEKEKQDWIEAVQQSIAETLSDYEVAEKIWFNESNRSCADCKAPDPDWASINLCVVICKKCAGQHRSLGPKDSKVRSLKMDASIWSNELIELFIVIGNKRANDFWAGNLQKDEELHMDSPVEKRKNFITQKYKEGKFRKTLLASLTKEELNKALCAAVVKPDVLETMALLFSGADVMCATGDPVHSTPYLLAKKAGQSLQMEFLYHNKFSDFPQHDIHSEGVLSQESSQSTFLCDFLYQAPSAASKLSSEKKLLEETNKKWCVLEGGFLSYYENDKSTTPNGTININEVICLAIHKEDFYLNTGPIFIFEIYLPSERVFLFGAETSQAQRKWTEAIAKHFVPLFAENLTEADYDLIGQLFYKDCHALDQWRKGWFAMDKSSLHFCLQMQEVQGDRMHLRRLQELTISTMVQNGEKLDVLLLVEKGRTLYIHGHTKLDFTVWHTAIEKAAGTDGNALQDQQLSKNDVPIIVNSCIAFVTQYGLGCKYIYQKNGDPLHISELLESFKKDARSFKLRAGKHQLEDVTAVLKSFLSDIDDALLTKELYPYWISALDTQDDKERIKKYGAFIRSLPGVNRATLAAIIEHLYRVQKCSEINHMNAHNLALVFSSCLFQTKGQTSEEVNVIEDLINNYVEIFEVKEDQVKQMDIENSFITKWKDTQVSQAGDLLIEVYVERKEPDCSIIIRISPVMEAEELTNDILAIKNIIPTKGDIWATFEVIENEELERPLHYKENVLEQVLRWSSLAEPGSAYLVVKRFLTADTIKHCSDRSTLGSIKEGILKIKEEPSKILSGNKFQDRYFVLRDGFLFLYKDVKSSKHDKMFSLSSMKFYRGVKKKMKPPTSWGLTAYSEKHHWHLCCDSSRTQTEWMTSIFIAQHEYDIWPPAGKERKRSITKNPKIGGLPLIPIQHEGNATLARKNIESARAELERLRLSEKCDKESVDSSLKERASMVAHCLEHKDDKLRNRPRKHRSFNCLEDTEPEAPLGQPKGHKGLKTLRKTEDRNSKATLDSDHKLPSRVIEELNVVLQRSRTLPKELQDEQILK

The targets below were run with COC(=O)C#Cc1ccccc1 [methyl 3-phenylpropiolate] (assay: log2 ratio of iodoacetamide-alkyne labeling of the cysteine site, DMSO over compound (competition); higher = stronger covalent engagement of the cysteine by the compound, active = 1 or more). Conditions: 500 µM; treatment time 1 h; system: HEK293T cell lysate.
In short: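 After 1 h at ambient temperature with vehicle or electrophile (500 µM), HEK293T lysate (2 mg/mL) was labelled for 1 h with iodoacetamide alkyne and clicked to sCIP-TMT reagents. Pooled samples were trypsin-digested overnight at 37 °C, streptavidin-enriched, acid-eluted and analysed by Orbitrap Eclipse LC-MS/MS with FAIMS, then quantified in FragPipe over three replicates with duplicate channels. A cysteine's log2 competition ratio is its mean control-channel over mean compound-channel reporter intensity. Cysteines quantified in only one replicate were not included.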
In the case of IPO4 C400 (UniProt Q8TEX9), the “log2 ratio of iodoacetamide-alkyne labeling” value (shortened to “log2 ratio”) is reported as inactive: 0.365.
In the case of UniProt Q8N4M1_C3, the “log2 ratio” value is reported as inactive: 0.519.
NUDCD2 C99 (UniProt Q8WVJ2) was tested, and the “log2 ratio” value was inactive: 0.231.
For AHCTF1 C521 (UniProt Q8WYP5), the “log2 ratio” value was active: 1.16.
With SPATA5 C27 (UniProt Q8NB90) the “log2 ratio” value was inactive: 0.362.
For NEK7 C298 (UniProt Q8TDX7), the “log2 ratio” value was inactive: 0.152.
For FBXO30 C317 (UniProt Q8TB52), the “log2 ratio” value was inactive: 0.564.
For DMXL2 C1833 (UniProt Q8TDJ6), the “log2 ratio” value was inactive: 0.0945.
For NPLOC4 C355 (UniProt Q8TAT6), the “log2 ratio” value was inactive: 0.0783.
RB1CC1 C1413 (UniProt Q8TDY2) was tested, and the “log2 ratio” value was inactive: 0.483.
In the case of GADD45GIP1 C124 (UniProt Q8TAE8), the “log2 ratio” value is reported as inactive: 0.294.
IPO4 C735 (UniProt Q8TEX9) was tested, and the “log2 ratio” value was inactive: 0.21.
In the case of PUM2 C169 (UniProt Q8TB72), the “log2 ratio” value is reported as inactive: 0.0838.
EXOC6 C28 (UniProt Q8TAG9) was tested, and the “log2 ratio” value was inactive: 0.489.
For SMARCC2 C145 (UniProt Q8TAQ2), the “log2 ratio” value was inactive: 0.428.
With IPO4 C42 (UniProt Q8TEX9) the “log2 ratio” value was inactive: -0.0119.
In the case of DGCR8 C256 (UniProt Q8WYQ5), the “log2 ratio” value is reported as inactive: 0.467.
With BBX C599 (UniProt Q8WY36) the “log2 ratio” value was inactive: 0.284.
NEK9 C25 (UniProt Q8TD19) was tested, and the “log2 ratio” value was active: 1.21.
For GPT2 C477 (UniProt Q8TD30), the “log2 ratio” value was inactive: 0.287.
With UniProt Q8NHM5_C533 the “log2 ratio” value was inactive: -0.242.
For DGCR8 C514 (UniProt Q8WYQ5), the “log2 ratio” value was inactive: 0.147.
With UniProt Q8N163_C644 the “log2 ratio” value was inactive: 0.00523.
With CHTF18 C542 (UniProt Q8WVB6) the “log2 ratio” value was inactive: 0.274.
In the case of PDCD6IP C250 (UniProt Q8WUM4), the “log2 ratio” value is reported as inactive: 0.0203.
With UniProt Q8N163_C238 the “log2 ratio” value was inactive: 0.203.
In the case of UniProt Q8WYL5_C626, the “log2 ratio” value is reported as active: 1.19.
In the case of UniProt Q8TDB4_C139, the “log2 ratio” value is reported as inactive: 0.481.
With NUP93 C422 (UniProt Q8N1F7) the “log2 ratio” value was inactive: 0.144.
In the case of NKAP C349 (UniProt Q8N5F7), the “log2 ratio” value is reported as inactive: 0.496.
With UniProt Q8N0X7_C272 the “log2 ratio” value was inactive: 0.213.
RAPGEF6 C1293 (UniProt Q8TEU7) was tested, and the “log2 ratio” value was inactive: 0.707.
In the case of UniProt Q8NEB9_C336, the “log2 ratio” value is reported as inactive: 0.145.
With ASCC3 C366 (UniProt Q8N3C0) the “log2 ratio” value was inactive: 0.467.
For SIRT6 C18 (UniProt Q8N6T7), the “log2 ratio” value was inactive: 0.0448.
With UniProt Q8WZ64_C1635 the “log2 ratio” value was inactive: 0.472.
For TDRD7 C1029 (UniProt Q8NHU6), the “log2 ratio” value was inactive: 0.426.
